Data from patent publication US9000188B2, “Monocyclic cyanoenones and methods of use thereof” (Trustees of Dartmouth College, priority 2008, dated 2015).

Assay: UV studies of Michael reactivity with dithiothreitol (DTT)
Assay type: physicochemical
Conditions: for second UV absorption on addition of DTT (Michael adduct): 0.1 mM compound, pH 7.4 phosphate buffered saline, 1% ethanol; for intensity of the second absorption with DTT relative to MCE-1: around 330 nm

Row | SMILES | second UV absorption on addition of DTT (Michael adduct) | change of UV spectrum on addition of DTT (0.1 mM DTT) | change of UV spectrum on addition of DTT (1 mM DTT) | intensity of the second absorption with DTT relative to MCE-1
1 | C#CC1(C)C=CC(=O)C(C#N)=C1 (centres unmarked) [MCE-1, 3-Ethynyl-3-methyl-6-oxocyclohexa-1,4-dienecarbonitrile] | gives the second UV absorption at a high wavelength | – | – | –
2 | CC1(C)C=CC(=O)C(C#N)=C1 [MCE-2, reference compound] | do not give the second absorption | – | – | –
3 | C#CC1(C)C=C(C#N)C(=O)CC1 (centres unmarked) [MCE-3, 3-Ethynyl-3-methyl-6-oxocyclohex-1-enecarbonitrile] | – | does not change | small red shift | –
4 | CC1(C)C=C(C#N)C(=O)C(C)(C)C1 [MCE-5, 3,3,5,5-Tetramethyl-2-oxocyclohex-1-enecarbonitrile] | – | no apparent change | weak absorption at 275 nm | –
5 | C#C[C@]12C=C(C#N)C(=O)C=C1[C@@]1(C)CCC(=O)C(C)(C)[C@@H]1CC2 [MCE-7] | show second absorptions | – | – | similarly intense as the corresponding absorption of MCE-1
6 | C#CC1(Cc2ccccc2)C=CC(=O)C(C#N)=C1 (centres unmarked) [MCE-13, 3-Benzyl-3-ethynyl-6-oxocyclohexa-1,4-dienecarbonitrile] | show second absorptions | – | – | a bit weaker than the corresponding absorption of MCE-1
7 | C=CC1(C)C=CC(=O)C(C#N)=C1 (centres unmarked) [MCE-15, 3-methyl-6-oxo-3-vinyl-cyclohexa-1,4-dienecarbonitrile] | do not give the second absorption | – | – | –
